Test results from article PMC6109052.
Results are given in words; binding and its absence hold for the method and conditions named. In cells and extracts the contact can be indirect. Some entries that bind do so weakly or less than the wild type.

Molecular target: GluN1 subunit of N-methyl-D-aspartic acid receptor (NMDAR) (mouse (endogenous in hippocampal synaptosomes)) (UniProt P35438)
Assay: co-IP; co-immunoprecipitation from hippocampal synaptosomal preparations of mice; GluN1 N-terminus and C-terminus antibodies; bound and unbound fractions blotted

binding: binds
B1: Neurofilament light subunit (protein, UniProt P08551 1-543)
chain: MSSFGYDPYFSTSYKRRYVETPRVHISSVRSGYSTARSAYSSYSAPVSSSLSVRRSYSSSSGSLMPSLENLDLSQVAAISNDLKSIRTQEKAQLQDLNDRFASFIERVHELEQQNKVLEAELLVLRQKHSEPSRFRALYEQEIRDLRLAAEDATNEKQALQGEREGLEETLRNLQARYEEEVLSREDAEGRLMEARKGADEAALARAELEKRIDSLMDEIAFLKKVHEEEIAELQAQIQYAQISVEMDVSSKPDLSAALKDIRAQYEKLAAKNMQNAEEWFKSRFTVLTESAAKNTDAVRAAKDEVSESRRLLKAKTLEIEACRGMNEALEKQLQELEDKQNADISAMQDTINKLENELRSTKSEMARYLKEYQDLLNVKMALDIEIAAYRKLLEGEETRLSFTSVGSITSGYSQSSQVFGRSAYSGLQSSSYLMSARSFPAYYTSHVQEEQTEVEETIEATKAEEAKDEPPSEGEAEEEEKEKEEGEEEEGAEEEEAAKDESEDTKEEEEGGEGEEEDTKESEEEEKKEESAGEEQVAKKKD
